# Read-outs that look alike come from different tables or passages of the source. At least one peptide structure holds a part that was inferred or is arguable (an end, a ring closure or a residue). Positions of bridges follow the written chain, without caps; N, C: chain ends. Non-standard residues stand in square brackets, D forms with d. Residues, ends and D or L forms follow the SMILES beside them. Cha = N[C@@H](CC1CCCCC1)C(=O)O
# Assays:
# [1] = test system: specific binding sites for ANP; test: Competitive binding on isolated rabbit lung membrane, 125I-ANP-(103-126), overall; conditions: rabbit lung membranes; read-out: apparent Ki of the standard in the binding assay
# [2] = test system: nonvasorelaxant (NVR) binding sites; test: Competitive binding on isolated rabbit lung membrane, NVR sites; conditions: rabbit lung membranes, 125I-ANP-(103-126); relative to standard ANP-(103-126)
# [3] = test system: vasorelaxant (VR) receptor (guanylate cyclase-linked ANP receptor); test: Competitive binding on isolated rabbit lung membrane, VR receptor; conditions: rabbit lung membranes, 125I-ANP-(103-126); relative to standard ANP-(103-126)
# rabbit aortic rings = conditions: relaxation of norepinephrine (50 nM) precontracted rings, EC50 compared with ANP-(103-126)
smiles,measurement,setting,value
"CC[C@H](C)[C@@H]1NC(=O)[C@H](CCCNC(=N)N)NC(=O)[C@H](CC(=O)O)NC(=O)[C@H]([C@@H](C)CC)NC(=O)[C@H](CCCNC(=N)N)NC(=O)CNC(=O)CNC(=O)[C@H](Cc2ccccc2)NC(=O)[C@@H](NC(=O)[C@H](CO)NC(=O)[C@@H](N)CO)CSSC[C@@H](C(=O)N[C@@H](CC(N)=O)C(=O)N[C@@H](CO)C(=O)N[C@@H](Cc2ccccc2)C(=O)N[C@@H](CCCNC(=N)N)C(=O)N[C@@H](Cc2ccc(O)cc2)C(=O)O)NC(=O)CNC(=O)[C@H](CC(C)C)NC(=O)CNC(=O)[C@H](CO)NC(=O)[C@H](CCC(N)=O)NC(=O)[C@H](C)NC(=O)CNC1=O [ANP-(103-126), ATRIOPEPTIN III, reference compound] (H-SSCFGGRIDRIGAQSGLGCNSFRY-OH; disulfide 3-19)",Ki,[1],0.25 ± 0.16 nM
"CC[C@H](C)[C@H](NC(=O)[C@H](CCCNC(=N)N)NC(=O)[C@H](CC(=O)O)NC(=O)[C@@H](NC(=O)[C@H](CCCNC(=N)N)NC(=O)CNC(=O)[C@@H](C)NC(=O)[C@H](Cc1ccccc1)NC(=O)[C@@H](N)CS)[C@@H](C)CC)C(=O)NCC(N)=O [Peptide No. 4, Cys-Phe-(D-Ala)-Gly-Arg-Ile-Asp-Arg-Ile-GlyNH2] (H-CF[dA]GRIDRIG-NH2)","Relative Potencies to ANP-(103-126), Binding NVR",[2],0.48
same,"Relative Potencies to ANP-(103-126), Binding VR",[3],0.002
"CC[C@H](C)[C@H](NC(=O)[C@H](CCCNC(=N)N)NC(=O)[C@H](CC(=O)O)NC(=O)[C@@H](NC(=O)[C@H](CCCNC(=N)N)NC(=O)CNC(=O)CNC(=O)[C@H](CC1CCCCC1)NC(=O)[C@@H](N)CS)[C@@H](C)CC)C(N)=O [Peptide No. 7, Cys-Cha-Gly-Gly-Arg-Ile-Asp-Arg-IleNH2] (H-C[Cha]GGRIDRI-NH2)","Relative Potencies to ANP-(103-126), Rabbit Aorta",rabbit aortic rings,0.015
same,"Relative Potencies to ANP-(103-126), Rabbit Aorta",rabbit aortic rings; listed as Peptide 7,about one sixtieth
